Measurements: patent US20240327780A1 (priority 2023, published 2024)
For at least one compound, name, drawing or mass did not settle the structure.

Legend:
Format in all cases: cell-based
[1] = test system: S. cerevisiae abd1::kanMX4 pMO41 pMO42 (YeRCOM-MPV)
[2] = test system: S. cerevisiae abd1::kanMX4 pMO5 (YeRCOM-human)
[3] = test system: S. cerevisiae abd1::kanMX4 pMO65 (YeRCOM-MERS); conditions: 25 and 50 uM disulfiram, 48 hours, liquid selection medium, 1% DMSO; FIG. 21C

Measured: growth rate perturbation (total growth, OD600)

CCN(CC)C(=S)SSC(=S)N(CC)CC [disulfiram]
non-selective inhibition: all assays above
